# Results of single-concentration screens

Data taken from ChEMBL document CHEMBL3988442, “University of Dundee, Small-Polar-MMV Screening Library” (2021).

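Growth of Mycobacterium tuberculosis over 3 days (7H9 medium with glucose and tyloxapol); the read-out is not stated. Compounds at 500 µM. Direction is inferred from retests: higher values go with more growth inhibition. About 18,000 compounds were tested under these conditions; 7.9% (about 1,400) showed 50% or more at least once.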

Values are the deposited “Percent Effect”, in %. The controls that fix the scale are not given in the record; negative values are as filed. Compounds were drawn at random from those tested, without regard to their results.

| SMILES | Percent Effect |
|---|---|
| `Cc1nc(N)sc1C(=O)N1C[C@H](C2CC2)[C@@H](N)C1` | -5.093 |
| `O=C(NC1CC1)c1cc(O)nc2ccc(F)cc12` | -17.24 |
| `CC(NC(=O)CSc1nnnn1C1CC1)c1cccs1` (stereo unspecified) | 64.71 |
| `CCCS(=O)(=O)NCC(C)N1CCOCC1` (stereo unspecified) | 9.861 |
| `O=C(COc1ccc(C(F)(F)F)cc1)NCCCO` | 32.48 |
| `CC(C)c1ccc(S(=O)(=O)C(C)C(N)=O)cc1` (stereo unspecified) | 57.41 |
| `CC(C)OCC1CNCCO1` (stereo unspecified) | -7.626 |
| `CCCn1nnnc1NCc1ccsc1` | 66.88 |
| `CC[C@H](C)[C@H](N)CN(C)C` | 8.32 |
| `CCC(C(=O)Nc1cc2c(cc1C)OCO2)N(C)C` (stereo unspecified) | 69.29 |
| `Cc1nc(C)n(CCNC(=O)C2CCCCCN2C)n1` (stereo unspecified) | 4.847 |
| `COCCN(C)CCNC(=O)c1cc2ccccc2[nH]1` | 32.58 |
| `CCSCCN1CCN(C(=O)c2cccc(O)c2)CC1` | 18.73 |
| `Cc1cc(N)n(CC(=O)N2CCN(C)C(=O)C2C)n1` (stereo unspecified) | -7.89 |
| `OCC1(NCC2CC2)CCNCC1` | -12.67 |
| `Cc1cc(C)n(CCCC(=O)N[C@@H]2COCC[C@H]2O)n1` | -1.82 |
| `Cc1nnc(NC(=O)c2c(C)noc2C)s1` | -4.687 |
| `NC(=O)NCCCN1CCc2ccccc2C1` | 19.28 |
| `Brc1ccnc(Nc2ccccn2)c1` | 43.75 |
| `COCCN(Cc1ccsc1)C(=O)CC1CCNC1` (stereo unspecified) | 65.31 |
| `CCNC(=O)C(C)NC(=O)c1ccc(OC)c(OC)c1` (stereo unspecified) | 3.384 |
| `C=C(C)CN(C)CC1CCN(CCO)CC1` | -6.789 |
| `CCN1CCCN(C(=O)c2cnc3ccccn23)CC1` | -1.107 |
| `Cc1cc(C(=O)N2CCn3cccc3C2C)no1` (stereo unspecified) | -17.45 |
| `COc1cccc(C(=O)N2C[C@H](C3CC3)[C@@H](N)C2)c1C` | 29.04 |
| `COCc1nn(CCC2CCCC2)c(=O)o1` | 72.38 |
| `COCCNC(=O)CN1CCC2(CC1)OCCO2` | 19.21 |
| `Cn1c(=O)oc2ccc(NC(=O)C3COCCN3)cc21` (stereo unspecified) | -13.36 |
| `CCc1nc(Cn2ccc(C)c(C#N)c2=O)no1` | -1.451 |
| `CCOc1ncc(C(=O)N(C)C)cc1Cl` | 17.36 |
| `CNc1nc(CNC(=O)Nc2c(C)noc2C)cs1` | 11.4 |
| `CCn1cc(C(=O)NCc2nnc(C(C)C)n2C)cn1` | 2.762 |
| `Cc1noc(C)c1CN1CCn2ccnc2C1` | 4.477 |
| `COCCN(c1nccc(C(F)(F)F)n1)C(C)C(N)=O` (stereo unspecified) | 6.171 |
| `O=C1NCCN(CCn2cncn2)C1c1cccs1` (stereo unspecified) | -5.656 |
| `OCC1CCN(Cc2cc(Cl)c3c(c2)OCCO3)CC1` | 32.16 |
| `CN(C)C1CCN(c2ccc(N)nc2)C1` (stereo unspecified) | 28.68 |
| `CN(CCCO)C1CCN(C(=O)CC(C)(C)C)CC1` | 5.107 |
| `Cn1cc(CC(CN)C(N)=O)cn1` (stereo unspecified) | -5.559 |
| `CNCC(=O)NC(c1ccccc1)c1nccn1C` (stereo unspecified) | 15.45 |
| `Cn1ccc(CNC(=O)N[C@H](CO)c2ccccc2)c1` | -16.35 |
| `CN(Cc1nccn1C)C(=O)COCC1CCCO1` (stereo unspecified) | 0.6454 |
| `CC(=O)N1CCN(c2ccc3nnnn3n2)CC1` | -2.24 |
| `Cc1ocnc1C(=O)NCCNC(=O)c1cccnc1` | 20.92 |
| `COc1ccc(CN2CCCNCC2=O)cc1` | 22.8 |
| `OCCNC1CCC1` | -11.39 |
| `Cc1cc(CNC(=O)c2cc(=O)cc(C)o2)ccn1` | -3.295 |
| `CCN1CCN(CCCOc2ccc(CO)cc2)CC1` | 13.6 |
| `c1coc(C2CCNCC2)n1` | -22.7 |
| `CNC(=O)NCc1cccc(OC)c1` | 11.2 |
| `O=C(Nc1ncccn1)c1cccnc1` | 1.725 |

The first 3 entries again:

SMILES,Percent Effect
Cc1nc(N)sc1C(=O)N1C[C@H](C2CC2)[C@@H](N)C1,-5.093
O=C(NC1CC1)c1cc(O)nc2ccc(F)cc12,-17.24
CC(NC(=O)CSc1nnnn1C1CC1)c1cccs1 (stereo unspecified),64.71